Results published in the supplement of paper PMC12067093, “Discovery and optimisation of a covalent ligand for TRIM25 and its application to targeted protein ubiquitination” (Chemical Science, 2025).
This is one part of the list.

By UniProt entry, the sequences of proteins in these tests, tags left out. Where a name states a change or a piece, a line headed by the entry shows the natural chain unless it says otherwise.
UniProt Q9BTW9: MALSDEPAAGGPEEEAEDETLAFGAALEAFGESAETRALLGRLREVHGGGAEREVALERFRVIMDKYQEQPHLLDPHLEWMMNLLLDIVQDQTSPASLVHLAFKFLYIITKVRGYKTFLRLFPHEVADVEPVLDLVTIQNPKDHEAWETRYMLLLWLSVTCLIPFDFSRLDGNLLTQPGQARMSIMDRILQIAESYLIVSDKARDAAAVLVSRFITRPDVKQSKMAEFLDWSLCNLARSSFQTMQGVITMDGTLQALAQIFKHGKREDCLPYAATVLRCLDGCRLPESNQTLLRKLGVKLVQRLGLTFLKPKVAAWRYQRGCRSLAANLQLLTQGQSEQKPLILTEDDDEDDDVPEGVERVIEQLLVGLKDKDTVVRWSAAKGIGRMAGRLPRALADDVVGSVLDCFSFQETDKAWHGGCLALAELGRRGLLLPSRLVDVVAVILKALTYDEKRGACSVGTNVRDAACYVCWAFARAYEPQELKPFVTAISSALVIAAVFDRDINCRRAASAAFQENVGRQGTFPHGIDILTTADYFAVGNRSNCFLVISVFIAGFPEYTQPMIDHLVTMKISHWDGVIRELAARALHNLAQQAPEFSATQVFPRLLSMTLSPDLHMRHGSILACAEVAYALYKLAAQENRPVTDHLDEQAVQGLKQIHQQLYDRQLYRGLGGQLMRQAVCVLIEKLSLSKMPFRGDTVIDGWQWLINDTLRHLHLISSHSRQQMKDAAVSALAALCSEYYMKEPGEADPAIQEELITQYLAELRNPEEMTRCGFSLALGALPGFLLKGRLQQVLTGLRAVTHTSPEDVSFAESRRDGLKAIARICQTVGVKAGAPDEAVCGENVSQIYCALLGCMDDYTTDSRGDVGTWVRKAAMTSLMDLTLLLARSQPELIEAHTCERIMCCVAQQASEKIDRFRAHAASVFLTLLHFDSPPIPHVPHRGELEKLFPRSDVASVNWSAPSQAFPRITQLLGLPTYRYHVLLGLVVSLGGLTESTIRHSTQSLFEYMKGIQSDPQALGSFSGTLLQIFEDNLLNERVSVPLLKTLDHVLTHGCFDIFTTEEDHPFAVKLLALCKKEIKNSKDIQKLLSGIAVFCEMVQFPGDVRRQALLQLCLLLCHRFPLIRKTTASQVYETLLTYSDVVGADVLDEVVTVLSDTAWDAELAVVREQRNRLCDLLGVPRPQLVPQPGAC
UniProt Q9UHD2: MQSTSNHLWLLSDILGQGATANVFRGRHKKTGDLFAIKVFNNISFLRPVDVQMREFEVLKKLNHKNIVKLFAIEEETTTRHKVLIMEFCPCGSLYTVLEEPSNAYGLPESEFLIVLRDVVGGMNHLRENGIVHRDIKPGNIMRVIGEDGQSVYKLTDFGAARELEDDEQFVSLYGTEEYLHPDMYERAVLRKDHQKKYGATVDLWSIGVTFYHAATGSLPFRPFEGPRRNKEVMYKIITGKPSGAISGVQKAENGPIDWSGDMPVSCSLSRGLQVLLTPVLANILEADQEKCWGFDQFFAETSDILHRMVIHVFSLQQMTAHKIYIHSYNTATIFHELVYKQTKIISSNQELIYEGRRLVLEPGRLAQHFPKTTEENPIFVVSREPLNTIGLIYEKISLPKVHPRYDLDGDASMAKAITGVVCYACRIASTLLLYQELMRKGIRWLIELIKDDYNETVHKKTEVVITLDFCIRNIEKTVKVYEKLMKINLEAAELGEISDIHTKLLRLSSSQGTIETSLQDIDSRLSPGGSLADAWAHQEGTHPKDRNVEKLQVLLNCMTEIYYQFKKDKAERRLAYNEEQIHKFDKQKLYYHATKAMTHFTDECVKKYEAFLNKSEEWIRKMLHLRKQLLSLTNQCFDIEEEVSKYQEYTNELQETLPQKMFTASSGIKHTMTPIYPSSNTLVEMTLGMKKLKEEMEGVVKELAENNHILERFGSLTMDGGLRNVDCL
UniProt Q8IYJ3: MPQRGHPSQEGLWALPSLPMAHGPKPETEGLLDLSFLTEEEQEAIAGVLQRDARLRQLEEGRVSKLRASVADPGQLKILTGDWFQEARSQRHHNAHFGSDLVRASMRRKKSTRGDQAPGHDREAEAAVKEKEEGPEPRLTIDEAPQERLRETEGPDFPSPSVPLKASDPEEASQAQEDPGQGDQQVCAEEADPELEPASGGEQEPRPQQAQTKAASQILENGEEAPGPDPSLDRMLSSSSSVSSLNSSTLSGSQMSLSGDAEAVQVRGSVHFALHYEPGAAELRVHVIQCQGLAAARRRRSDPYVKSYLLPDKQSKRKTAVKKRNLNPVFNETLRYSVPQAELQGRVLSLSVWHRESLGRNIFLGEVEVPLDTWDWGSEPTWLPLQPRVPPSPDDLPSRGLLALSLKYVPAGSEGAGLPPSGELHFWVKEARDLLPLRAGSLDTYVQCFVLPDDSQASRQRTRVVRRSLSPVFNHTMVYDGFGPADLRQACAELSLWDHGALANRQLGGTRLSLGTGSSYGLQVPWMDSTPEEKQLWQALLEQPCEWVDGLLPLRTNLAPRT
UniProt Q6P1N9: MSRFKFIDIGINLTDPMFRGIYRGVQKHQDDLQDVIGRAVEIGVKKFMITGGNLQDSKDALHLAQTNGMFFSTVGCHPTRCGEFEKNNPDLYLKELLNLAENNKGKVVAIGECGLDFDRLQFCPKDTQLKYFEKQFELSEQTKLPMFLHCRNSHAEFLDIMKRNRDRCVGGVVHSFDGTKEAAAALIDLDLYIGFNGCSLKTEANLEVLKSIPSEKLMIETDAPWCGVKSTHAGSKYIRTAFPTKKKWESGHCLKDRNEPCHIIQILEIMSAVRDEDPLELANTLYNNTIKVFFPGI
UniProt Q93075: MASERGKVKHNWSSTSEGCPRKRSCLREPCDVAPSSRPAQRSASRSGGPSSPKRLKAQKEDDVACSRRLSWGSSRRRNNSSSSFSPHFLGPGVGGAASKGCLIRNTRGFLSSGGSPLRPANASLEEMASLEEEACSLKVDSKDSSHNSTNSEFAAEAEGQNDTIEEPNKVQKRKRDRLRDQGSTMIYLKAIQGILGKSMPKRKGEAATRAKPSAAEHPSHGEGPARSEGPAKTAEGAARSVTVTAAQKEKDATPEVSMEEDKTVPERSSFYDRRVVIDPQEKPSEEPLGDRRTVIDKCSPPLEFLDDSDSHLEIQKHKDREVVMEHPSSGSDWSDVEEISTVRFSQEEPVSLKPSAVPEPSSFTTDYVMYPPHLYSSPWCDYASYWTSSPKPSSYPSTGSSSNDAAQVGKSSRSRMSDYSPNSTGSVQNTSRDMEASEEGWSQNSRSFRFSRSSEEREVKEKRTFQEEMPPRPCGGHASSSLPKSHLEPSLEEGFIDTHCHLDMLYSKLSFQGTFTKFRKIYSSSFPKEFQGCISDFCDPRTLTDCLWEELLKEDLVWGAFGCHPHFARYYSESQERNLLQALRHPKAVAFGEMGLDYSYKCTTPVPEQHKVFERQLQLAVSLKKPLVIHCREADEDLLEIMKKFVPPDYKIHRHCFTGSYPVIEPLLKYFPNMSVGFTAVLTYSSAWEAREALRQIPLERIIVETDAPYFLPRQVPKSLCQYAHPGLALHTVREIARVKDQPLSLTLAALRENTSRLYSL
UniProt A2RTX5: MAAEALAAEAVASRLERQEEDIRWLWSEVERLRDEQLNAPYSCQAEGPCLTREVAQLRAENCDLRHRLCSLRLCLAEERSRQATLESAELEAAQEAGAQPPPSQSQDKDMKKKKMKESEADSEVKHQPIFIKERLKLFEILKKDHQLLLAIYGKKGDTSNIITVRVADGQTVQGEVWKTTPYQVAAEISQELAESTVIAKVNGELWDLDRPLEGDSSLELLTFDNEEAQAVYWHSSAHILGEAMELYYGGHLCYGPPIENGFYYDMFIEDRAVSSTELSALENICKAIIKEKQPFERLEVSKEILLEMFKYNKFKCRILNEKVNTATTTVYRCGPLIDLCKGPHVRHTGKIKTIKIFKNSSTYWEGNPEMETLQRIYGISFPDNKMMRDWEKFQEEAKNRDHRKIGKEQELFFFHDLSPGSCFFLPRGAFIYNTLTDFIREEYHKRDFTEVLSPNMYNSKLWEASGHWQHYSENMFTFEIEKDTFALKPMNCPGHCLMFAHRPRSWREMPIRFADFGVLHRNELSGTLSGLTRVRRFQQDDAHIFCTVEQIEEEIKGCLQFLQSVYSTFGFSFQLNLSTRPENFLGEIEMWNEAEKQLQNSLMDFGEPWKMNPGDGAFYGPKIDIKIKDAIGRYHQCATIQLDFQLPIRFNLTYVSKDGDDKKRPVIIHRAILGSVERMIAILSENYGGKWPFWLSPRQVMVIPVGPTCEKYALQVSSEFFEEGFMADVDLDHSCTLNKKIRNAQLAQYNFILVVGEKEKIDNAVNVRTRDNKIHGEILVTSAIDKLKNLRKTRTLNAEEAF
UniProt O15533, whole entry, looked up: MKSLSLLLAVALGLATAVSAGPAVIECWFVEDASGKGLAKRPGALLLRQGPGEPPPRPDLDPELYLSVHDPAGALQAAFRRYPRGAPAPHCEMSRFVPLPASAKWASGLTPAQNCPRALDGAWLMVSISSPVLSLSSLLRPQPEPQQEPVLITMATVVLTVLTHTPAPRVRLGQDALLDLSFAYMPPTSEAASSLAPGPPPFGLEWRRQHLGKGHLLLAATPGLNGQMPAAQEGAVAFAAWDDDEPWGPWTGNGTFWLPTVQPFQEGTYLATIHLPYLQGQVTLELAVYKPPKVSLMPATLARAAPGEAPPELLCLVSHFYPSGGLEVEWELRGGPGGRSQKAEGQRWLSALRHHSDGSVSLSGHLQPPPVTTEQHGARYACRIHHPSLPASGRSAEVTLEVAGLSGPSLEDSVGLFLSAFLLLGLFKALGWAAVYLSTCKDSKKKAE
UniProt Q969Z0: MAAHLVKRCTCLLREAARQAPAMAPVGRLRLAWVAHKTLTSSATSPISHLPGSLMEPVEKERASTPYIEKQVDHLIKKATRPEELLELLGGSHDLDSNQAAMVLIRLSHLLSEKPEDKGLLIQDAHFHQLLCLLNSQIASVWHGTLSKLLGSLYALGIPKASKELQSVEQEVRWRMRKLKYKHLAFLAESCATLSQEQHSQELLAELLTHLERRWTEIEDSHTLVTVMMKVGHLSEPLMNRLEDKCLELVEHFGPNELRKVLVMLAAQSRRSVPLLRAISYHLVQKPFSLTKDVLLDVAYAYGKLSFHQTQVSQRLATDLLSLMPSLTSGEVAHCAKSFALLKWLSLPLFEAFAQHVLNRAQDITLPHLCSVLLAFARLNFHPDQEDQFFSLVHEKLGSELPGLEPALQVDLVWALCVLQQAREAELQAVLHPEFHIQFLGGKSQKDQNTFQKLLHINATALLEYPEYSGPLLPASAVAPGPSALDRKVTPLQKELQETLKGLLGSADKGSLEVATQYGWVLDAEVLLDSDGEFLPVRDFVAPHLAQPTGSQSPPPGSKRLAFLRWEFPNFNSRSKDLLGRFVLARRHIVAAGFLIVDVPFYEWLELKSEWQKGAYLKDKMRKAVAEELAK
UniProt Q86TI0: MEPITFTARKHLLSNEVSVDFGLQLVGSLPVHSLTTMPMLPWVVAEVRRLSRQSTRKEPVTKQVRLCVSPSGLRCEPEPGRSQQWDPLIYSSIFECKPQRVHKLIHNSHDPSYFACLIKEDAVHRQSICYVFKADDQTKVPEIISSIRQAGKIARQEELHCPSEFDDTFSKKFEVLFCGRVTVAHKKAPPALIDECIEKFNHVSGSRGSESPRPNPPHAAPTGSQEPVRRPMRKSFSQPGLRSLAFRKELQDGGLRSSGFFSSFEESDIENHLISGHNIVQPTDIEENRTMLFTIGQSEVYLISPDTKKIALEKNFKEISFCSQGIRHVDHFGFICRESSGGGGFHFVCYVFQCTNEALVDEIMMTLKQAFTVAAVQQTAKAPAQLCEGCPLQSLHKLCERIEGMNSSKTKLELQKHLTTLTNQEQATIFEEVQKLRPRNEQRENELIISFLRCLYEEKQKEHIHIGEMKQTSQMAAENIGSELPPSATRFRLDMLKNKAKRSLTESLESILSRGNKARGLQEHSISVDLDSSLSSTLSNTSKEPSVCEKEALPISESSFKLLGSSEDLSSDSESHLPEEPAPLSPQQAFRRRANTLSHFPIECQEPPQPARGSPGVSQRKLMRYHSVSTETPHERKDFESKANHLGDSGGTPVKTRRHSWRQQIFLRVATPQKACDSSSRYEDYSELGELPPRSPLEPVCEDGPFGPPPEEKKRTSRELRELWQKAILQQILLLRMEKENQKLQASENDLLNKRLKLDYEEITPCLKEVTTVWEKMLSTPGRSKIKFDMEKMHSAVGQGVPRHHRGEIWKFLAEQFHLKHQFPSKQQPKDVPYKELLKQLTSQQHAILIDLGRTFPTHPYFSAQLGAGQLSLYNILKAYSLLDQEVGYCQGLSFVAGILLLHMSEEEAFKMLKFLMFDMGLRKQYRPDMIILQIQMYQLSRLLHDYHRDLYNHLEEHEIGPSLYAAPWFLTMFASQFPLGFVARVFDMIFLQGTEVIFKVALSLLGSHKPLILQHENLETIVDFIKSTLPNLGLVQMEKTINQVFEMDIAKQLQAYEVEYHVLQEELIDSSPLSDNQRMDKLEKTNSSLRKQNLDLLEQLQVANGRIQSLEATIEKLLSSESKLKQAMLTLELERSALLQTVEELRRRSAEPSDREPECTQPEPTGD

Compound: CC1Cc2ccccc2N1C(=O)C1CCCN(C1)C(=O)CCl (mixture of isomers) [TRIM25 ligand 11 (diastereomer mixture)]
Assay: probe-labelled cysteine peptide fold change vs DMSO (competition) (log2 fold change); higher = less target engagement (more negative = stronger competition)
Settings: THP-1, incubation time: 4 h
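Also: competitive chemoproteomic profiling in live THP-1 cells with an iodoacetamide desthiobiotin (IA-DTB) probe, comparing probe-labelled peptide intensities in compound-treated cells against DMSO-treated controls.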

Target | probe-labelled cysteine peptide fold change (10 µM) | probe-labelled cysteine peptide fold change (50 µM)
TBCD_Q9BTW9_269_REDCLPYAATVLR (UniProt Q9BTW9) | 0.0256 | 0.0383
TBK1_Q9UHD2_267_AENGPIDWSGDMPVSCSLSR (UniProt Q9UHD2) | -0.4 | -0.461
SYTL1_Q8IYJ3_290_VHVIQCQGLAAAR (UniProt Q8IYJ3) | -0.0395 | 0.0114
TCEA1_P23193_212_KNVLCGNIPPDLFAR (UniProt P23193) | -0.214 | -0.0512
TATDN1_Q6P1N9_113+123_VVAIGECGLDFDRLQFCPK (UniProt Q6P1N9) | -0.314 | -0.198
TBL2_Q9Y4P3_259_VWEVCFGK (UniProt Q9Y4P3) | 0.124 | 0.152
TAOK2_Q9UL54_643_QYFELQCR (UniProt Q9UL54) | 0.172 | 0.167
TATDN2_Q93075_563_EDLVWGAFGCHPHFAR (UniProt Q93075) | -0.0451 | 0.0648
TARSL2_A2RTX5_74_LCLAEER (UniProt A2RTX5) | -0.0772 | -0.0224
TACC3_Q9Y6A5_236_AETPHGAEEECR (UniProt Q9Y6A5) | -0.0379 | -0.0197
TACC3_Q9Y6A5_828_ICDDLISK (UniProt Q9Y6A5) | -0.041 | 0.139
TAPBP_O15533_115_WASGLTPAQNCPR (UniProt O15533) | 0.107 | -0.0566
TACC3_Q9Y6A5_242_HGGVCAPAAVATSPPGAIPK (UniProt Q9Y6A5) | -0.0737 | -0.214
TBRG4_Q969Z0_370_AQDITLPHLCSVLLAFAR (UniProt Q969Z0) | -0.121 | 0.0306
TBC1D1_Q86TI0_322_EISFCSQGIR (UniProt Q86TI0) | -0.00609 | -0.0164

In a second layout: entries from further up
Target	probe-labelled cysteine peptide fold change (10 µM)	probe-labelled cysteine peptide fold change (50 µM)
TBK1_Q9UHD2_267_AENGPIDWSGDMPVSCSLSR (UniProt Q9UHD2)	-0.4	-0.461
SYTL1_Q8IYJ3_290_VHVIQCQGLAAAR (UniProt Q8IYJ3)	-0.0395	0.0114
